Experimental data published in the supplement of paper PMC10849652.
The other results are listed elsewhere or left out.

By UniProt entry, the sequences of proteins in these tests, tags left out. Where a name states a change or a piece, a line headed by the entry shows the natural chain unless it says otherwise.
UniProt O94915: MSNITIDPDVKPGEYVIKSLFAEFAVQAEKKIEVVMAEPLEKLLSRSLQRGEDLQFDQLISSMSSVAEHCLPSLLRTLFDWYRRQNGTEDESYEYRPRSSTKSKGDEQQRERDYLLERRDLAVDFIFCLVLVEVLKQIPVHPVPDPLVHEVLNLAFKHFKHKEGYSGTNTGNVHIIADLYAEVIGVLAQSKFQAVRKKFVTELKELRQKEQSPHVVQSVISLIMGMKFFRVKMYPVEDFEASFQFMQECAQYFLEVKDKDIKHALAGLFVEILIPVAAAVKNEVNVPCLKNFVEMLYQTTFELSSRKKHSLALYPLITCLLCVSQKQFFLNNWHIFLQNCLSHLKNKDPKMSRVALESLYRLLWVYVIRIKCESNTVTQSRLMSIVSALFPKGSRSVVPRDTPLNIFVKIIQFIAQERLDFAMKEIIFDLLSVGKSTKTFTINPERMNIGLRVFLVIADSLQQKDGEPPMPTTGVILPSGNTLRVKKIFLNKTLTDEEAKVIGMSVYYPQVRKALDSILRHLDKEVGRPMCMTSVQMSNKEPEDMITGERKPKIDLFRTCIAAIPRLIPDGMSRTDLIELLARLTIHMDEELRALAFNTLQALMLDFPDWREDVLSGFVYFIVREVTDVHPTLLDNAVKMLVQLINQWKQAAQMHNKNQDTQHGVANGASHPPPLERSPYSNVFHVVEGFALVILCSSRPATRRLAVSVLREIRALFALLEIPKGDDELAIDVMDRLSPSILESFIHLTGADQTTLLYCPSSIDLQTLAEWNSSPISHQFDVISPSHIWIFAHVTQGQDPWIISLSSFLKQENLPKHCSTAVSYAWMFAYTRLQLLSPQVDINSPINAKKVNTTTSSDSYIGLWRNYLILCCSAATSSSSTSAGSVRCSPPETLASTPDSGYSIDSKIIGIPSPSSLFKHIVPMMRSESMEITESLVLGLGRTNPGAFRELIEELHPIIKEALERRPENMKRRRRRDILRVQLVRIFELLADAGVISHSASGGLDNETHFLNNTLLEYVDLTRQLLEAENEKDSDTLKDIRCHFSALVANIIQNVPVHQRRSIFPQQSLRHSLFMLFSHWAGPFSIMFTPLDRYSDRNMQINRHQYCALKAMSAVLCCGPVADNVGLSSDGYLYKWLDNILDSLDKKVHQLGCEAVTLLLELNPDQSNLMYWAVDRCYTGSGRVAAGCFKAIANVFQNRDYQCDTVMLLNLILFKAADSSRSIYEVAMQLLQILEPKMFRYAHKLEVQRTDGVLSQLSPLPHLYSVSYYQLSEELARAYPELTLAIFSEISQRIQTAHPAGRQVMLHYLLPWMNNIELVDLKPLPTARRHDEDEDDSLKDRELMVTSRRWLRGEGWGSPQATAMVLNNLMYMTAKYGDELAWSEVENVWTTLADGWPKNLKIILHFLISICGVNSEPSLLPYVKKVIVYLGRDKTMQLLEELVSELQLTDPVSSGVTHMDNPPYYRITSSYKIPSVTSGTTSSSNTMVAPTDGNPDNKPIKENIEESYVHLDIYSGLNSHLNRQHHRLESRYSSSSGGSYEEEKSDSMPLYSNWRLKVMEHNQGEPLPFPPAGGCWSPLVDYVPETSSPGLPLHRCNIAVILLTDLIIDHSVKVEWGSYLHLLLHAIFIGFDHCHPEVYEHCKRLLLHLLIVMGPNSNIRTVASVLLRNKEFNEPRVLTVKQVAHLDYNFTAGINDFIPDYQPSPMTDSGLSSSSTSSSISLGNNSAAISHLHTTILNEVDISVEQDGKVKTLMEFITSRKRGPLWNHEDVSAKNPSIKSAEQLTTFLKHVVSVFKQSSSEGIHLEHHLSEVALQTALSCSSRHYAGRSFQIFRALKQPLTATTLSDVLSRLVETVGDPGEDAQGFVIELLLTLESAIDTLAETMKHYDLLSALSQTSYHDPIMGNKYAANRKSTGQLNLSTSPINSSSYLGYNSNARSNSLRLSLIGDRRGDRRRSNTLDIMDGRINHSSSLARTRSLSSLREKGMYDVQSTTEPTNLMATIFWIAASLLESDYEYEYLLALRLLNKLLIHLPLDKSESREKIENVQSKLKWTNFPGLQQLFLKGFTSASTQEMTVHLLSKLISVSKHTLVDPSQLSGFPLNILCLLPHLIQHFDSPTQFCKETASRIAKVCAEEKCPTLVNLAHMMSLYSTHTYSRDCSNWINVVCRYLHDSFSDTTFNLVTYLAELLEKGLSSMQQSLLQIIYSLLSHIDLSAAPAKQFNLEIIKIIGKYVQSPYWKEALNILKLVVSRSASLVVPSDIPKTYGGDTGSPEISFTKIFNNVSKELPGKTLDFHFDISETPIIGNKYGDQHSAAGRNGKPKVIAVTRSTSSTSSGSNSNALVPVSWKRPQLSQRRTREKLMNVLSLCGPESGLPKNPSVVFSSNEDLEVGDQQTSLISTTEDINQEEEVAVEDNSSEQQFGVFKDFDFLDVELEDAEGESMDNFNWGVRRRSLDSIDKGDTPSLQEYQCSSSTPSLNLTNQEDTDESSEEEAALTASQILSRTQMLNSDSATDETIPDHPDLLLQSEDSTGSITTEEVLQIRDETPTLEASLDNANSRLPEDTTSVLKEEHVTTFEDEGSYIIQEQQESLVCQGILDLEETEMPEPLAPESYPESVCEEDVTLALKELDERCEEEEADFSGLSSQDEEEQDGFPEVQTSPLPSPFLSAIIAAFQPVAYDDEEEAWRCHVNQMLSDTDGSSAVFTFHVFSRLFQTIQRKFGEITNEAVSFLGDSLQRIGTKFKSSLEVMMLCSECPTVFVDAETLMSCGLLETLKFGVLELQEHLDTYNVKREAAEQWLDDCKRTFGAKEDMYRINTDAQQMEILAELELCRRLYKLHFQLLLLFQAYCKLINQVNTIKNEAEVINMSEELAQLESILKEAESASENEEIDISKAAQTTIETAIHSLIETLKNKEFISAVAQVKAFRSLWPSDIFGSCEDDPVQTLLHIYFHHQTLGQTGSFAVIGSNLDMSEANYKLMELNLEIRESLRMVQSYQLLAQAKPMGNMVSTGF
UniProt Q14376: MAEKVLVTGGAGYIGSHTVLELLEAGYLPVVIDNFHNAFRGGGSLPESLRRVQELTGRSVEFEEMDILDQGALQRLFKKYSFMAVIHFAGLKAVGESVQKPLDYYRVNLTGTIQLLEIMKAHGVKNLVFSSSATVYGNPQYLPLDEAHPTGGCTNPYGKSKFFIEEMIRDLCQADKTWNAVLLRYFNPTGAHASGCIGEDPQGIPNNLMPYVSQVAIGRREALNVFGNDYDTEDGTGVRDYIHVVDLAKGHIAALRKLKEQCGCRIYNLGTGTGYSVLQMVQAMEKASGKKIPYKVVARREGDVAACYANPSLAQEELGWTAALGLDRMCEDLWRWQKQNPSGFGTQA
UniProt Q06210: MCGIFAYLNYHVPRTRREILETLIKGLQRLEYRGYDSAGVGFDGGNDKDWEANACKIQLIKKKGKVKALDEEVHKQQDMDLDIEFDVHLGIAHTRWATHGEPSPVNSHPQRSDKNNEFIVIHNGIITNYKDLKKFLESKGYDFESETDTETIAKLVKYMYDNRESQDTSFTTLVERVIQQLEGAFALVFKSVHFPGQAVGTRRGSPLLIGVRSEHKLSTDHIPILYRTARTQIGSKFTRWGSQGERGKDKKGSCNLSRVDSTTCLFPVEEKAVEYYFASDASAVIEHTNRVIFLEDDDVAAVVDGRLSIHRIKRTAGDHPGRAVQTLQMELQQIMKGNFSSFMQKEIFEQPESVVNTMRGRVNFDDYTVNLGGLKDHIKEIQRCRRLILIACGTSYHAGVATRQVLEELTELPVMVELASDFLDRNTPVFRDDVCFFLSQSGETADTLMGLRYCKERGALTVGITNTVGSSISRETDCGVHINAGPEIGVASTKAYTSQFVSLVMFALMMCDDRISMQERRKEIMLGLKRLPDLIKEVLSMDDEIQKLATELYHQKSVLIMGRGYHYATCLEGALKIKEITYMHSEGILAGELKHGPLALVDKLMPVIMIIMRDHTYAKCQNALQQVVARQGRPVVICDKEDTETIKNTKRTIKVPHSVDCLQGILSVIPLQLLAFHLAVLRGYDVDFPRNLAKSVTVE
UniProt Q13069: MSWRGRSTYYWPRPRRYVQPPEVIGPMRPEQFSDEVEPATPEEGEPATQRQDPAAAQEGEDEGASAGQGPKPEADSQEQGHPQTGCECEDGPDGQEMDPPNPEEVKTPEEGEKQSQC
UniProt Q9UJY5: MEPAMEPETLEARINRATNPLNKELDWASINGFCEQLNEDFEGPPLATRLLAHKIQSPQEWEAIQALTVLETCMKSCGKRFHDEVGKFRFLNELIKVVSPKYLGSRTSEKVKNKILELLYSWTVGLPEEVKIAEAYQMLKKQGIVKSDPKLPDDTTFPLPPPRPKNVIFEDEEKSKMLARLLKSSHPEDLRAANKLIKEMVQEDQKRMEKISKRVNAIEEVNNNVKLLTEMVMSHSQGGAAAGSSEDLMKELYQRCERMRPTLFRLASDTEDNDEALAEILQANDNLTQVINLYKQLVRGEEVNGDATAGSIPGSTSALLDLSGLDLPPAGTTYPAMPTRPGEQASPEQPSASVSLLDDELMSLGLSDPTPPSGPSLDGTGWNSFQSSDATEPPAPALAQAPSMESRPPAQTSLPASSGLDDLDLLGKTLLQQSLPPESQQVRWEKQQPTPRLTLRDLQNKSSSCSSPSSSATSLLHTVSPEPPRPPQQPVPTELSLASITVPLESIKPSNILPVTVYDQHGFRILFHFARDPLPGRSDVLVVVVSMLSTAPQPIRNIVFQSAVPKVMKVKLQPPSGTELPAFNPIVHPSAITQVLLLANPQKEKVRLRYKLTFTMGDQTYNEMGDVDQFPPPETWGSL
UniProt Q9UJY4: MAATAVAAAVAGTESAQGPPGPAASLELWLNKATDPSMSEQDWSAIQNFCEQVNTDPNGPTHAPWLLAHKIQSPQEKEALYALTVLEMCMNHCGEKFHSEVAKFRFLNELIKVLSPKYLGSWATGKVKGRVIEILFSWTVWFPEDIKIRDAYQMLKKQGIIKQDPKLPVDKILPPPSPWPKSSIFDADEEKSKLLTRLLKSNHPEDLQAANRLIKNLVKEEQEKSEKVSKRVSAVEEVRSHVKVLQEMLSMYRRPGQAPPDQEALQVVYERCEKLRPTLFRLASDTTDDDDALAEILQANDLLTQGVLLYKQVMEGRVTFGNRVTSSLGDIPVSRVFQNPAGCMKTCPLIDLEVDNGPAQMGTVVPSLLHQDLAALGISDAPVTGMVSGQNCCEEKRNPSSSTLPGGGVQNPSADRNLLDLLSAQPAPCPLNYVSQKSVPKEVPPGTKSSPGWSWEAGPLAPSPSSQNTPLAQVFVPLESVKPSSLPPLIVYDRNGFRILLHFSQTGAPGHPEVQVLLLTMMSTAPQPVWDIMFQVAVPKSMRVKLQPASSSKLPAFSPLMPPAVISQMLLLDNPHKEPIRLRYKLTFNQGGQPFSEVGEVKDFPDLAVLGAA
UniProt P31150: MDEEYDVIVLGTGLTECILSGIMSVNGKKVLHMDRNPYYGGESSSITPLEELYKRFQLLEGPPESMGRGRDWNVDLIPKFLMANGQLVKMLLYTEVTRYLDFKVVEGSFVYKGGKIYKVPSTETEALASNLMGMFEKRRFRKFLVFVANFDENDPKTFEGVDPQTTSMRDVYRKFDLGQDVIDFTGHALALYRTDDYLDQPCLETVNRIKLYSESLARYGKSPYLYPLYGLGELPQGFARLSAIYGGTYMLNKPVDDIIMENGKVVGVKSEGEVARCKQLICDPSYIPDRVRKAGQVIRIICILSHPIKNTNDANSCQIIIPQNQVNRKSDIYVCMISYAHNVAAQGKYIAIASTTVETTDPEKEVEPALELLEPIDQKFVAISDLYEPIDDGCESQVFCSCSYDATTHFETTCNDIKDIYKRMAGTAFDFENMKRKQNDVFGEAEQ
UniProt Q8NCW6: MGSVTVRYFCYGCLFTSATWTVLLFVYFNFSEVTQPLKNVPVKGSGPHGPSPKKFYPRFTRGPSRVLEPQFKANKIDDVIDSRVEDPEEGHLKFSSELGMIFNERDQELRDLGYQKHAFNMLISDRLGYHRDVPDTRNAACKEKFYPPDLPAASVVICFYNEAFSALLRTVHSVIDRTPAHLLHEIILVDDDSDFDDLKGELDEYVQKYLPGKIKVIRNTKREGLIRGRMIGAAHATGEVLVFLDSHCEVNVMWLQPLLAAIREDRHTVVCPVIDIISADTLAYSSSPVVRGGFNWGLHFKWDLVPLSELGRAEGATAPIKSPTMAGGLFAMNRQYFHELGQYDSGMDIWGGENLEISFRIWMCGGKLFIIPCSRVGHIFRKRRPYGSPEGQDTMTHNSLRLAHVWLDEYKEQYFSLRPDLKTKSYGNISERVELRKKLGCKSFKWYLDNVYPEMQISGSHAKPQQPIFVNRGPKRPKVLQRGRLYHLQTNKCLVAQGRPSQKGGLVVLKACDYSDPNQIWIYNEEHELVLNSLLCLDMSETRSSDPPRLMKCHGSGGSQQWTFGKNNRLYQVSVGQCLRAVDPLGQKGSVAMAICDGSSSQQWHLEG

Legend:
Assay in all cases: log2 fold change, soluble protein after heating vs DMSO (PISA); higher = thermal stabilisation; K562 lysate, 10 uM; active = over 0.2 and 3.5 SD of the protein, either way, in both replicates (recomputed)
[1] = compound: CN1CC[C@H](c2c(O)cc(O)c3c(=O)cc(-c4ccccc4Cl)oc23)[C@H](O)C1 [alvocidib]
In short: (§1)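 A 30 min treatment with 10 μM compound was applied to crude K562 extract at 1 mg/mL protein in PBS pH 7.4 with 1 mM MgCl2. Heating for 3 min spanned 48°C-58°C, after which aliquots were pooled, adjusted to 0.5% NP-40 at 4°C and spun at 21,000xg for 90 min. TMTpro 16plex LC-MS/MS of the supernatant, with channel sums equalised, gave values recorded as log-two fold change in thermal stability against solvent controls, from duplicates.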

[2] = compound: CN1CCc2c(c3ccccc3n2Cc2ccc(C(=O)NO)cc2)C1 [Tubastatin A]
In short: as §1

[3] = compound: CNC(=O)C1=CC=CC=C1NC2=NC(=NC=C2Cl)NC3=C(C=C(C=C3)N4CCOCC4)OC
In short: as §1

[4] = compound: CNC(=O)c1ccc(Nc2ncc(C(F)(F)F)c(NCc3nccnc3N(C)S(C)(=O)=O)n2)cc1 [defactinib]
In short: as §1

[5] = compound: CNc1nc(-c2ccc3c(N)n[nH]c3c2)cc(N2C[C@@H](C(=O)NC3CCCCC3)CC[C@H]2C)n1
In short: as §1

[6] = compound: COC(=O)N[C@@H](C)CNc1nccc(-c2cn(C(C)C)nc2-c2cc(Cl)cc(NS(C)(=O)=O)c2F)n1 [encorafenib]
In short: as §1

[7] = compound: COC(=O)[C@H](CCSC)NC(=O)C1=C(C=C(C=C1)NC[C@H](CS)N)C2=CC=CC=C2
In short: as §1

[8] = compound: COc1cc(Nc2ncc3c(n2)-c2ccc(Cl)cc2C(c2c(F)cccc2OC)=NC3)ccc1C(=O)O [alisertib]
In short: as §1

[9] = compound: COc1cc2nc(-c3cc(F)ccc3O)nc(N[C@@H]3CNC[C@H]3C(C)(C)O)c2cc1OC
In short: as §1

[10] = compound: COc1cc2ncnc(Nc3ccc(F)c(Cl)c3)c2cc1OCCCN1CCOCC1 [gefitinib]
In short: as §1

[11] = compound: CS(=O)(=O)CCNCc1ccc(-c2ccc3ncnc(Nc4ccc(OCc5cccc(F)c5)c(Cl)c4)c3c2)o1 [lapatinib]
In short: as §1

[12] = compound: CS(=O)(=O)N1CCN(Cc2cc3nc(-c4cccc5[nH]ncc45)nc(N4CCOCC4)c3s2)CC1 [pictilisib]
In short: as §1

[13] = compound: C[C@@H](Oc1cc(-c2cnn(C3CCNCC3)c2)cnc1N)c1c(Cl)ccc(F)c1Cl [crizotinib]
In short: as §1

[14] = compound: C[C@H](C1=CC=C(C=C1)C(=O)NC2=C3C=CNC3=NC=C2)N
In short: as §1

[15] = compound: C[C@H](Nc1ncnc2nc[nH]c12)c1cc2cccc(Cl)c2c(=O)n1-c1ccccc1 [duvelisib]
In short: as §1

[16] = compound: Cc1cc(Nc2cc(CN3CCOCC3)c3nc(C)c(Cc4ccc(Cl)cc4F)n3n2)n[nH]1 [gandotinib]
In short: as §1

[17] = compound: Cc1cc(Nc2cc(N3CCN(C)CC3)nc(Sc3ccc(NC(=O)C4CC4)cc3)n2)n[nH]1 [tozasertib]
In short: as §1

[18] = compound: Cc1ccc(-n2nc(C(C)(C)C)cc2NC(=O)Nc2ccc(OCCN3CCOCC3)c3ccccc23)cc1 [doramapimod]
In short: as §1

[19] = compound: Cc1ccc(NC(=O)c2ccc(CN3CC[C@H](N(C)C)C3)c(C(F)(F)F)c2)cc1Nc1nccc(-c2cncnc2)n1 [bafetinib]
In short: as §1

[20] = compound: Cc1cccc(CC(=O)N2CCc3c2ccc(-c2cn(C)c4ncnc(N)c24)c3F)n1
In short: as §1

Measured: log2 fold change

FRYL (UniProt O94915)
inactive: [1] -0.004 | [2] -0.067 | [3] 0.01 | [4] -0.016 | [5] -0.02 | [6] 0.032 | [7] 0.04 | [8] 0.006 | [9] 0.005 | [10] 0.007 | [11] -0.039 | [12] -0.012 | [13] -0.055 | [14] -0.057 | [15] -0.048 | [16] -0.075 | [17] -0.023 | [18] 0.042 | [19] -0.059 | [20] 0.03

GBA (UniProt P04062)
inactive: [1] -0.007 | [2] -0.019 | [3] -0.005 | [4] 0.127 | [5] -0.164 | [6] 0.069 | [7] 0.001 | [8] -0.031 | [9] -0.08 | [10] 0.034 | [11] 0.054 | [12] 0.034 | [13] 0.01 | [14] 0.013 | [15] 0.024 | [16] 0.092 | [17] -0.141 | [18] 0.01 | [19] -0.124 | [20] -0.01

GEMIN6 (UniProt Q8WXD5)
inactive: [1] -0.06 | [2] -0.018 | [3] -0.011 | [4] -0.047 | [5] 0.092 | [6] -0.008 | [7] -0.175 | [8] -0.027 | [9] 0.004 | [10] 0.004 | [11] -0.042 | [12] 0.002 | [13] 0.071 | [14] -0.094 | [15] -0.011 | [16] 0.082 | [17] -0.082 | [18] -0.045 | [19] -0.01 | [20] 0.051

FTSJ3 (UniProt Q8IY81)
inactive: [1] 0.031 | [2] -0.073 | [3] -0.018 | [4] 0.026 | [5] 0.007 | [6] -0.028 | [7] 0.031 | [8] 0.005 | [9] -0.036 | [10] 0.004 | [11] 0.013 | [12] 0.023 | [13] -0.037 | [14] -0.031 | [15] -0.01 | [16] -0.019 | [17] -0.019 | [18] -0.025 | [19] 0.013 | [20] 0.031

GALNT1 (UniProt Q10472)
inactive: [1] -0.018 | [2] 0.056 | [3] -0.067 | [4] 0.008 | [5] -0.03 | [6] 0.012 | [7] -0.031 | [8] 0.032 | [9] -0.014 | [10] -0.026 | [11] -0.022 | [12] -0.029 | [13] -0.041 | [14] -0.107 | [15] -0.025 | [16] -0.036 | [17] 0.008 | [18] 0.026 | [19] 0.018 | [20] 0.071

GALE (UniProt Q14376)
inactive: [1] 0 | [2] -0.108 | [3] -0.066 | [4] -0.037 | [5] -0.042 | [6] 0.003 | [7] 0.16 | [8] -0.02 | [9] -0.028 | [10] 0.038 | [11] -0.005 | [12] -0.02 | [13] -0.01 | [14] -0.025 | [15] 0.004 | [16] -0.053 | [17] 0.016 | [18] 0.039 | [19] -0.086 | [20] 0.031

GCLM (UniProt P48507)
inactive: [1] 0.028 | [2] -0.049 | [3] 0.003 | [4] 0.003 | [5] -0.038 | [6] -0.003 | [7] -0.004 | [8] 0.05 | [9] 0.002 | [10] -0.023 | [11] -0.006 | [12] -0.013 | [13] 0.018 | [14] -0.009 | [15] 0.016 | [16] -0.004 | [17] -0.017 | [18] 0.001 | [19] 0.003 | [20] -0.03

GCLC (UniProt P48506)
inactive: [1] -0.06 | [2] 0.019 | [3] -0.012 | [4] 0.006 | [5] 0.005 | [6] -0.012 | [7] 0.109 | [8] -0.005 | [9] 0.011 | [10] 0.026 | [11] -0.035 | [12] -0.033 | [13] 0.022 | [14] -0.036 | [15] 0.012 | [16] 0.013 | [17] 0.01 | [18] 0.003 | [19] -0.036 | [20] 0.021

GFPT1 (UniProt Q06210)
inactive: [1] 0.022 | [2] -0.075 | [3] 0.011 | [4] 0.01 | [5] 0.012 | [6] -0.012 | [7] 0.134 | [8] 0.005 | [9] 0.007 | [10] -0.013 | [11] -0.001 | [12] -0.026 | [13] -0.033 | [14] 0.009 | [15] -0.002 | [16] -0.066 | [17] -0.013 | [18] -0.001 | [19] -0.031 | [20] 0.007

GAGE5 (UniProt Q13069)
inactive: [1] 0.036 | [2] 0.13 | [3] -0.009 | [4] 0.115 | [5] 0.05 | [6] 0.04 | [7] -0.133 | [8] 0.042 | [9] -0.021 | [10] -0.058 | [11] 0.097 | [12] -0.039 | [13] 0.023 | [14] 0.016 | [15] 0.066 | [16] -0.068 | [17] -0.056 | [18] 0.002 | [19] -0.016 | [20] -0.022

GGA1 isoform 6 (UniProt Q9UJY5)
inactive: [1] 0.007 | [2] 0.067 | [3] -0.006 | [4] 0.015 | [5] -0.03 | [6] 0.015 | [7] -0.01 | [8] -0.015 | [9] -0.007 | [10] 0.003 | [11] 0.002 | [12] -0.054 | [13] -0.011 | [14] 0.01 | [15] 0.017 | [16] 0.012 | [17] -0.008 | [18] 0.007 | [19] -0.053 | [20] -0.021

FUCA1 (UniProt P04066)
inactive: [1] -0.039 | [2] 0.016 | [3] 0.034 | [4] 0.014 | [5] 0.057 | [6] -0.012 | [7] -0.009 | [8] -0.055 | [9] 0.015 | [10] 0.029 | [11] -0.015 | [12] 0.006 | [13] -0.044 | [14] -0.114 | [15] 0.039 | [16] 0.059 | [17] -0.018 | [18] 0.03 | [19] -0.047 | [20] 0.044

GGA2 (UniProt Q9UJY4)
inactive: [1] 0.002 | [2] -0.085 | [3] 0.003 | [4] -0.029 | [5] -0.018 | [6] 0.002 | [7] 0.01 | [8] 0.038 | [9] 0.023 | [10] -0.025 | [11] -0.024 | [12] -0.037 | [13] -0.029 | [14] 0.023 | [15] -0.002 | [16] -0.131 | [17] 0.007 | [18] -0.024 | [19] -0.046 | [20] -0.004

GDI1 (UniProt P31150)
inactive: [1] -0.013 | [2] 0.014 | [3] -0.034 | [4] 0.004 | [5] -0.021 | [6] -0.017 | [7] 0.002 | [8] 0.005 | [9] 0.006 | [10] 0.001 | [11] 0.001 | [12] -0.016 | [13] 0.016 | [14] 0.076 | [15] 0.005 | [16] -0.05 | [17] -0.01 | [18] 0.004 | [19] 0.011 | [20] -0.027

GALNT11 (UniProt Q8NCW6)
inactive: [1] -0.076 | [2] 0.06 | [3] -0.047 | [4] 0.094 | [5] -0.022 | [6] 0.13 | [7] -0.018 | [8] -0.119 | [9] -0.01 | [10] 0.013 | [11] -0.107 | [13] -0.034 | [14] -0.143 | [15] 0.093 | [16] 0.058 | [17] -0.041 | [18] 0.026 | [20] 0.132

Quoted from above (3 entries):
GGA1 isoform 6 (UniProt Q9UJY5)
inactive: [1] 0.007 | [2] 0.067 | [3] -0.006 | [4] 0.015 | [5] -0.03 | [6] 0.015 | [7] -0.01 | [8] -0.015 | [9] -0.007 | [10] 0.003 | [11] 0.002 | [12] -0.054 | [13] -0.011 | [14] 0.01 | [15] 0.017 | [16] 0.012 | [17] -0.008 | [18] 0.007 | [19] -0.053 | [20] -0.021

FUCA1 (UniProt P04066)
inactive: [1] -0.039 | [2] 0.016 | [3] 0.034 | [4] 0.014 | [5] 0.057 | [6] -0.012 | [7] -0.009 | [8] -0.055 | [9] 0.015 | [10] 0.029 | [11] -0.015 | [12] 0.006 | [13] -0.044 | [14] -0.114 | [15] 0.039 | [16] 0.059 | [17] -0.018 | [18] 0.03 | [19] -0.047 | [20] 0.044

GGA2 (UniProt Q9UJY4)
inactive: [1] 0.002 | [2] -0.085 | [3] 0.003 | [4] -0.029 | [5] -0.018 | [6] 0.002 | [7] 0.01 | [8] 0.038 | [9] 0.023 | [10] -0.025 | [11] -0.024 | [12] -0.037 | [13] -0.029 | [14] 0.023 | [15] -0.002 | [16] -0.131 | [17] 0.007 | [18] -0.024 | [19] -0.046 | [20] -0.004
